These are yes or no findings as the source states them, for the method shown. Binding can be weak; no strength is given. For some assays here: Binding seen in cells or lysates may run through a third protein.
Experiments:
[1] = molecular target: Cdc3G (GTPase domain of Cdc3) (S. cerevisiae) (UniProt P32457); assay: SEC-MALS
[2] = molecular target: Cdc3G (GTPase domain of Cdc3) (S. cerevisiae) (UniProt P32457); assay: co-purification
[3] = molecular target: Cdc3G (GTPase domain of Cdc3) (S. cerevisiae) (UniProt P32457); assay: crystal structure
[4] = molecular target: Cdc3G (GTPase domain of Cdc3) (S. cerevisiae) (UniProt P32457); assay: crystal structure; remark: listed apart in the source
[5] = molecular target: Cdc3G (GTPase domain of Cdc3) (S. cerevisiae) (UniProt P32457); assay: SEC-MALS; remark: listed apart in the source

The chains behind the UniProt entries cited, without tags or fusion partners. Where a name states a change or a piece, a line headed by the entry shows the natural chain unless it says otherwise.
UniProt P32457: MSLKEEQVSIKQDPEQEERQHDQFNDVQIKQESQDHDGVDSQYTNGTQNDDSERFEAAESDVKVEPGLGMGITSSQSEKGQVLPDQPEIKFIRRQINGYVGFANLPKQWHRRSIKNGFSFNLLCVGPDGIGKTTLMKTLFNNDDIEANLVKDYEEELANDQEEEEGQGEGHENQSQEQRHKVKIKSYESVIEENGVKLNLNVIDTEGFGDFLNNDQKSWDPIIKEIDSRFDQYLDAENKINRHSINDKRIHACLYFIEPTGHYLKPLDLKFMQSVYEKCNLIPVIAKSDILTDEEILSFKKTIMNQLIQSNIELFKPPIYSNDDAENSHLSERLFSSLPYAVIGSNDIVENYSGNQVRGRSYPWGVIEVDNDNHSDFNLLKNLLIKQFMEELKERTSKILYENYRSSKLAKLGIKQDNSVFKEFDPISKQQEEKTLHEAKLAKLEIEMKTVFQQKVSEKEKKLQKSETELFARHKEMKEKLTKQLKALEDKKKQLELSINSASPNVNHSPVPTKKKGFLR

Molecule	binding [1]	binding [2]	binding [3]	binding [4]	binding [5]
Cdc10G (GTPase domain of Cdc10) (from UniProt P25342) (domain or fragment)	binds	binds	binds	–	–
Cdc10_(Δ1-10) (domain or fragment) SYVGFDTITNQIEHRLLKKGFQFNIMVVGQSGLGKSTLINTLFASHLIDSATGDDISALPVTKTTEMKISTHTLVEDRVRLNINVIDTPGFGDFIDNSKAWEPIVKYIKEQHSQYLRKELTAQRERFITDTRVHAILYFLQPNGKELSRLDVEALKRLTEIANVIPVIGKSDTLTLDERTEFRELIQNEFEKYNFKIYPYDSEELTDEELELNRSVRSIIPFAVVGSENEIEINGETFRGRKTRWSAINVEDINQCDFVYLREFLIRTHLQDLIETTSYIHYEGFRARQLIALKENANSRSSAHMSSNAIQR	–	–	–	binds	binds
